# Laboratory results published in PubChem BioAssay AID504834 (National Center for Advancing Translational Sciences (NCATS), 2011).
# Among all 320,000 compounds or so, about 22,000 (6.9%) were called active. The shares of active, inactive and inconclusive entries below differ from those in the screen. Calls follow the shape of the dose curve; as a rule, active = well fitted inhibition curve with a large enough effect; inconclusive = small, poorly fitted or top-dose-only effect, or another doubt; inactive = no such curve, though single readings can be large or run the other way. Where the call is inconclusive, the potency comes from a doubtful curve fit.
# Test: Primary qHTS for delayed death inhibitors of the malarial parasite plastid, 96 hour incubation
# Conditions: P. falciparum luciferase reporter growth; series mostly up to 28.7 µM; activity change, negative = inhibition: at the top concentration
# Summary of the method: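 Infected RBCs, 2% Hct / 0.05% parasitemia final; luciferase-reporter P. falciparum; cpd 96 h, 37 C, 5% CO2; luciferase detection reagent; luminescence.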
# % is scaled to controls: 0 for no effect and ±100 for the full control effect; potency is read from the fitted curve at half-maximal effect.
SMILES,Potency,"activity change, negative = inhibition"
Nc1nc(Cn2nnc(-c3ccccc3Cl)n2)nc(N2CCOCC2)n1,"inconclusive: 18.5 µM [inhibitor, single point]",–
Cc1ccc(N2CCN(S(=O)(=O)c3ccc4c(c3)n(C)c(=O)c(=O)n4C)CC2C)cc1 (stereo not drawn),"inconclusive: 13.1 µM [inhibitor, partial curve, poor fit]",–
CCOC(=O)c1c(NC(=O)c2ccccc2Cl)sc2c1CCc1ccccc1-2,"inconclusive: 14.7 µM [inhibitor, single point]",–
CC(=O)Nc1sc(N/N=C/c2ccccc2F)nc1-c1ccc(C)cc1,"inconclusive: 1.85 µM [inhibitor, partial curve, poor fit]",–
CCC(C)NC(=O)c1ccc(C)c(NC(=O)C2=C(C)OCCS2)c1 (stereo not drawn),–,inactive: 26.6%
COc1ccc2[nH]c(C)c(CN3CCCCC3)c(=O)c2c1,"inconclusive: 13.1 µM [inhibitor, single point]",–
COc1ccc(OCc2cc(C(=O)N(C)Cc3cnccn3)no2)c(Cl)c1,"inconclusive: 14.7 µM [inhibitor, single point]",–
O=C(CSc1oc(-c2ccco2)nc1S(=O)(=O)c1ccc(Cl)cc1)NCC1CCCO1 (stereo not drawn),"inconclusive: 0.0041 µM [inhibitor, full curve, poor fit]",–
C=CCNC(=O)c1c(O)c2cccc3c2n(c1=O)CCC3,"inconclusive: 10.4 µM [inhibitor, partial curve]",–
O=C(N/N=C/c1cn(Cc2ccccc2)c2ccccc12)c1ccncc1,–,inactive: 0%
CCCC1=C(C(=O)OCC)C(c2cc(Cl)cc(OC)c2OCC(=O)OCC)NC(=O)N1 (stereo not drawn),"inconclusive: 4.15 µM [inhibitor, partial curve]",–
CCNc1c(NC(=O)COc2ccc(Cl)cc2)c(=O)oc2ccccc12,"inconclusive: 9.28 µM [inhibitor, partial curve]",–
O=C(COC(=O)CNC(=O)c1ccccc1)Nc1cccc(Br)c1,"inconclusive: 7.38 µM [inhibitor, partial curve, poor fit]",–
CCOc1ccc(/C(O)=C2/C(=O)C(=O)N(c3cc(C)on3)C2c2ccc(C(=O)OC)cc2)cc1 (stereo not drawn),–,inactive: 22.9%
COc1ccc(S(=O)(=O)NC(CC(=O)NCCc2ccc(OC)c(OC)c2)C(C)C)cc1 (stereo not drawn),–,inactive: -15.4%
CC(C)NC(=S)N/N=C/C1=CCC2CC1C2(C)C (stereo not drawn),"inconclusive: 3.29 µM [inhibitor, single point]",–
COc1ccccc1S(=O)(=O)N1CCn2cccc2C1C (stereo not drawn),"inconclusive: 10.4 µM [inhibitor, single point]",–
Cc1ccc(S(=O)(=O)N2CCCC2CNC(=O)c2ccc3c(c2)OCO3)cc1 (stereo not drawn),active: 14.7 µM,–

# Reformatted: entries from further up.
SMILES	Potency	activity change, negative = inhibition
Cc1ccc(N2CCN(S(=O)(=O)c3ccc4c(c3)n(C)c(=O)c(=O)n4C)CC2C)cc1 (stereo not drawn)	inconclusive: 13.1 µM [inhibitor, partial curve, poor fit]	–
CCOC(=O)c1c(NC(=O)c2ccccc2Cl)sc2c1CCc1ccccc1-2	inconclusive: 14.7 µM [inhibitor, single point]	–
